{"source": "paper PMC10687119", "about": "“Quaternary Ammonium Salts of Cationic Lipopeptides with Lysine Residues — Synthesis, Antimicrobial, Hemolytic and Cytotoxic Activities” (Probiotics and Antimicrobial Proteins, 2023)", "key": {"C. glabrata ATCC 15126": {"test_system": "C. glabrata ATCC 15126", "type": "cell-based, Candida glabrata", "details": "for quotient SIqUSCLs/SIUSCLs in terms of HC50, C. glabrata: SI of qUSCL divided by SI of parent USCL", "description": "(§1) The Acinetobacter baumannii ATCC BAA-1605, Enterococcus faecium ATCC 700221, Klebsiella aerogenes ATCC 13048, Klebsiella pneumoniae ATCC 700603, Pseudomonas aeruginosa ATCC 9027, Staphylococcus aureus ATCC 33591, Candida glabrata ATCC 15126 strains were acquired from the American Type Culture Collection (ATCC, Manassas, USA). All the strains were stored at −80 °C in Roti-Store cryo vials (Carl Roth GmbH, Germany) and before the tests were transferred into fresh Mueller–Hinton broth (MHB, Becton Dickinson, Poland) for bacteria or RPMI-1640 (Sigma-Aldrich, Germany) for fungi and incubated for 24 h at 37 °C. Then, the cultures were cultured on the Mueller–Hinton agar (BioMaxima, Poland) or Sabouraud dextrose agar (SDA, BioMaxima) plates, respectively, and incubated as just mentioned. For microbiological assays, a minimum of three to five well-isolated colonies of the same morphological type were carefully picked from the agar cultures. These colonies were transferred with sterile loop into fresh microbiological medium and incubated with shaking (100 rpm) at 37 °C until they reached logarithmic phase of growth. Cell densities for all assays were adjusted through spectrophotometric measurements (Multiskan GO Microplate Spectrophotometer, Thermo Fisher Scientific, Finland) at 600 and 530 nm for bacteria and fungi, respectively.\n(§2) The MICs were determined by broth microdilution method according to the Clinical and Laboratory Standard Institute guidelines. For this purpose, initial inoculums of bacteria (5 × 10^5 CFU/mL) in MHB and yeasts (2 × 10^3 CFU/mL) in RPMI-1640 with 2% D-glucose were exposed to the ranging concentration of lipopeptides (1–512 μg/mL) and incubated at 37 °C for 18 h and 24 h, respectively. The experiments were conducted on 96-well microtiter polystyrene plates (Kartell, Italy). The growth was assessed visually after incubation and the MIC was assumed as the lowest peptide concentration at which a noticeable growth of microorganisms was inhibited. Benzalkonium chloride (Sigma-Aldrich, Germany) was used as reference compound. All experiments were conducted in triplicate."}, "E. faecium ATCC 700221": {"test_system": "E. faecium ATCC 700221", "type": "cell-based, Enterococcus faecium", "details": "for quotient SIqUSCLs/SIUSCLs in terms of HC50, E. faecium: SI of qUSCL divided by SI of parent USCL", "description": "as §1, §2"}, "[1]": {"test_system": "A. baumannii ATCC BAA 1605", "type": "cell-based, Acinetobacter baumannii", "details": "for quotient SIqUSCLs/SIUSCLs in terms of HC50, A. baumannii: SI of qUSCL divided by SI of parent USCL", "description": "as §1, §2"}, "S. aureus ATCC 33591": {"test_system": "S. aureus ATCC 33591", "type": "cell-based, Staphylococcus aureus", "details": "for quotient SIqUSCLs/SIUSCLs in terms of HC50, S. aureus: SI of qUSCL divided by SI of parent USCL", "description": "as §1, §2"}, "K. aerogenes ATCC 13048": {"test_system": "K. aerogenes ATCC 13048", "type": "cell-based, Klebsiella aerogenes", "details": "for quotient SIqUSCLs/SIUSCLs in terms of HC50, K. aerogenes: SI of qUSCL divided by SI of parent USCL", "description": "as §1, §2"}, "[2]": {"test_system": "K. pneumoniae ATCC 700603", "type": "cell-based, Klebsiella pneumoniae", "details": "for quotient SIqUSCLs/SIUSCLs in terms of HC50, K. pneumoniae: SI of qUSCL divided by SI of parent USCL", "description": "as §1, §2"}, "P. aeruginosa ATCC 9027": {"test_system": "P. aeruginosa ATCC 9027", "type": "cell-based, Pseudomonas aeruginosa", "details": "for quotient SIqUSCLs/SIUSCLs in terms of HC50, P. aeruginosa: SI of qUSCL divided by SI of parent USCL", "description": "as §1, §2"}}, "note": "Like-named read-outs stand apart in the source and are kept apart here.", "data": [{"compound": "CCCCCCCCCCCCCCCC(=O)N[C@@H](CCCC[N+](C)(C)C)C(=O)N[C@@H](CCCC[N+](C)(C)C)C(N)=O", "note": "[Peptide 2Pq, C16-K(Me3)^+K(Me3)^+-NH2]", "values": [{"measurement": "quotient SIqUSCLs/SIUSCLs in terms of HC50, C. glabrata", "setting": "C. glabrata ATCC 15126", "value": 0.6}, {"measurement": "quotient SIqUSCLs/SIUSCLs in terms of HC50, E. faecium", "setting": "E. faecium ATCC 700221", "value": 1.2}, {"measurement": "quotient SIqUSCLs/SIUSCLs in terms of HC50, A. baumannii", "setting": "[1]", "value": 1.2}, {"measurement": "quotient SIqUSCLs/SIUSCLs in terms of HC50, S. aureus", "setting": "S. aureus ATCC 33591", "value": 0.6}, {"measurement": "quotient SIqUSCLs/SIUSCLs in terms of HC50, K. aerogenes", "setting": "K. aerogenes ATCC 13048", "value": 0.2}, {"measurement": "quotient SIqUSCLs/SIUSCLs in terms of HC50, K. pneumoniae", "setting": "[2]", "value": 0.6}, {"measurement": "quotient SIqUSCLs/SIUSCLs in terms of HC50, P. aeruginosa", "setting": "P. aeruginosa ATCC 9027", "value": 0.1}]}, {"compound": "CCCCCCCCCCCCCCCCCC(=O)N[C@@H](CCCC[N+](C)(C)C)C(=O)N[C@@H](CCCC[N+](C)(C)C)C(=O)N[C@@H](CCCC[N+](C)(C)C)C(N)=O", "note": "[Peptide 3Sq, C18-K(Me3)^+K(Me3)^+K(Me3)^+-NH2]", "values": [{"measurement": "quotient SIqUSCLs/SIUSCLs in terms of HC50, C. glabrata", "setting": "C. glabrata ATCC 15126", "value": 0.8}, {"measurement": "quotient SIqUSCLs/SIUSCLs in terms of HC50, E. faecium", "setting": "E. faecium ATCC 700221", "value": 3.0}, {"measurement": "quotient SIqUSCLs/SIUSCLs in terms of HC50, A. baumannii", "setting": "[1]", "value": 3.0}, {"measurement": "quotient SIqUSCLs/SIUSCLs in terms of HC50, S. aureus", "setting": "S. aureus ATCC 33591", "value": 0.7}, {"measurement": "quotient SIqUSCLs/SIUSCLs in terms of HC50, K. aerogenes", "setting": "K. aerogenes ATCC 13048", "value": 0.7}, {"measurement": "quotient SIqUSCLs/SIUSCLs in terms of HC50, K. pneumoniae", "setting": "[2]", "value": 0.4}, {"measurement": "quotient SIqUSCLs/SIUSCLs in terms of HC50, P. aeruginosa", "setting": "P. aeruginosa ATCC 9027", "value": 0.4}]}, {"compound": "benzalkonium chloride [BAC, reference compound]", "values": [{"measurement": "Selectivity index (SI) C. glabrata", "setting": "C. glabrata ATCC 15126; HC50/MIC", "value": 9.50}, {"measurement": "Selectivity index (SI) E. faecium", "setting": "E. faecium ATCC 700221; HC50/MIC", "value": 9.50}, {"measurement": "Selectivity index (SI) A. baumannii", "setting": "[1]; HC50/MIC", "value": 2.37}, {"measurement": "Selectivity index (SI) A. baumannii", "setting": "[1]; IC50 (HaCaT)/MIC", "value": 0.72}, {"measurement": "Selectivity index (SI) S. aureus", "setting": "S. aureus ATCC 33591; HC50/MIC", "value": 9.50}, {"measurement": "Selectivity index (SI) K. aerogenes", "setting": "K. aerogenes ATCC 13048; HC50/MIC", "value": 2.37}, {"measurement": "Selectivity index (SI) K. aerogenes", "setting": "K. aerogenes ATCC 13048; IC50 (HaCaT)/MIC", "value": 0.72}, {"measurement": "Selectivity index (SI) K. pneumoniae", "setting": "[2]; HC50/MIC", "value": 2.37}, {"measurement": "Selectivity index (SI) K. pneumoniae", "setting": "[2]; IC50 (HaCaT)/MIC", "value": 0.72}, {"measurement": "Selectivity index (SI) P. aeruginosa", "setting": "P. aeruginosa ATCC 9027; HC50/MIC", "value": 1.19}, {"measurement": "Selectivity index (SI) P. aeruginosa", "setting": "P. aeruginosa ATCC 9027; IC50 (HaCaT)/MIC", "value": 0.36}]}]}
